Source: patent publication US12617863
Results are given in words; binding and its absence hold for the method and conditions named. Binding calls can cover weak binding; strength is not graded here. Values belong to the binder of their own block, whether it stands above or below them.

Key:
[1] = biological target: monkey platelet glycoprotein I(b)α (GPIbα) on Cynomolgus monkey platelets (Cynomolgus monkey); experiment: flow cytometry on monkey platelets
[2] = biological target: recombinant hexa-histidine tagged GPIbα; experiment: SPR, His-tagged GPIbα held on Ni-NTA sensor
[3] = biological target: rabbit platelet glycoprotein I(b)α (GPIbα) on rabbit platelets (rabbit); experiment: flow cytometry on platelets, serial concentrations
[4] = biological target: rat platelet glycoprotein I(b)α (GPIbα) on rat platelets (rat); experiment: flow cytometry on platelets, serial concentrations
[5] = biological target: monkey platelet glycoprotein I(b)α (GPIbα) on Cynomolgus monkey platelets (Cynomolgus monkey); experiment: flow cytometry on Cynomolgus monkey washed platelets, 5 µg/mL
[6] = biological target: rabbit platelet glycoprotein I(b)α (GPIbα) on rabbit platelets (rabbit); experiment: flow cytometry on platelets, FITC anti-human Kappa chain detection
[7] = biological target: rat platelet glycoprotein I(b)α (GPIbα) on rat platelets (rat); experiment: as above
[8] = biological target: rat platelet glycoprotein I(b)α (GPIbα) on rat platelets (rat); experiment: flow cytometry, rat platelets from PRP, FITC anti-human kappa chain detection
[9] = biological target: rabbit platelet glycoprotein I(b)α (GPIbα) on rabbit platelets (rabbit); experiment: flow cytometry, rabbit platelets from PRP, FITC anti-human kappa chain detection
[10] = biological target: recombinant hexa-histidine tagged GPIbα; experiment: SPR, His-tagged GPIbα immobilised on a Ni-NTA gold sensor, H001 injected at 500, 100, 50 and 10 nM
[11] = biological target: monkey platelet glycoprotein I(b)α (GPIbα) on Cynomolgus monkey platelets (Cynomolgus monkey); experiment: flow cytometry, washed Cynomolgus monkey platelets, Fab 5 µg/mL, FITC anti-human kappa chain secondary antibody

binding [1]: binds | binding [2]: binds | binding [3]: binds | binding [4]: binds | binding [5]: binds | binding [6]: binds | binding [7]: binds | binding [8]: binds | binding [9]: binds | binding [10]: binds | binding [11]: binds
B1: humanized Fab H001 (Fab, V domains shown)
VH: QVQLVESGGGLVKPGGSLRLSCAASGFTFSSFAMSWIRQAPGKGLEWVSSITSAGTPYYPDSVLGRFTISRDNAKNSLYLQMNSLRAEDTAVYYCARSRGYEDYFDYWGQGTLVTVSS
VL: DIQMTQSPSSLSASVGDRVTITCKSSQSLLNSRNQKNYLAWYQQKPGKAPKLLIYFTSTRESGVPSRFSGSGSGTDFTLTISSLQPEDFATYYCQQHYSSPWTFGQGTKVEIKR

binding [1]: binds | binding [3]: binds | binding [4]: binds | binding [5]: binds | binding [6]: binds | binding [7]: binds | binding [8]: binds | binding [9]: binds | binding [11]: binds
B2: humanized Fab H002 (Fab, V domains shown)
VH: B1 VH
VL: DIVMTQSPLSLPVTPGEPASISCKSSQSLLNSRNQKNYLAWYLQKPGQSPQLLIYFTSTRESGVPDRFSGSGSGTDFTLKISRVEAEDVGVYYCQQHYSSPWTFGQGTKVEIKR
